According to patent US20220220200A1:
These are yes or no findings as the source states them, for the method shown. Some entries that bind do so weakly or less than the wild type.

By UniProt entry, the sequences of proteins in these tests, tags left out. Residues count along the entry.
UniProt P15391, residues 20-291: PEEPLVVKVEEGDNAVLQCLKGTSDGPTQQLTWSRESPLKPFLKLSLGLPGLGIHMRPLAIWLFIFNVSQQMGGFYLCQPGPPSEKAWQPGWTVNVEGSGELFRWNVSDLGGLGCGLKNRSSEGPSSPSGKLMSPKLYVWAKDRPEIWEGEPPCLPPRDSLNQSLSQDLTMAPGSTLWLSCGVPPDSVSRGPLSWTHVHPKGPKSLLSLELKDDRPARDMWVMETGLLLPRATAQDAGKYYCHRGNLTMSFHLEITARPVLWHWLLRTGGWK

Molecular target: CD19 antigen (analyte of the Octet affinity assay) (UniProt P15391)
Experiment: BLI (Octet), scFv-rFc on biosensor, CD19 antigen 400 to 12.5 nM in solution

Row | binding | Binder
1 | binds | #62 anti-CD19 scFv-rFc (Fc fusion, not shown: a dimerising Fc or GST; small tags and cut ends) scFv: QSVVTQPPSVSGAPGQRVTISCTGSSSNIGAGYDVHWYQQLPGTAPKLLIYENTNRPSGVPDRFSGSKSGTSASLAITGLQAEDEADYYCQSYDSSLSGWRVFGGGTKLTVLGSRGGGGSGGGGSGGGGSLEMAEVQLVQSGAEVKKPGESLKISCKGSGYSFTNSWIGWVRQMPGKGLEWMGLIYPDDSDTRYSPSFQGQVTISADSAINTAYLQWSSLKASDTAMYYCARQSTYIYGGYYDTWGQGTLVTVSS
2 | binds | #78 anti-CD19 scFv-rFc (Fc fusion, not shown: a dimerising Fc or GST; small tags and cut ends) scFv: QAVLTQPPSVSEAPRQRVTISCSGSSSNIGNNAVSWYQQLPGKAPKLLIYYDDLLPSGVSDRFSGSKSGTSASLAISGLQSEDEADYYCAAWDDSLNGWVFGGGTKVTVLGSRGGGGSGGGGSGGGGSLEEVQLVQSGAEVKKPGESLKISCKGSGYSFTSYWIGWVRQMPGKGLEWMGIIYPGDSDTRYSPSFQGQVTISADKSISTAYLQWSSLKASDTAMYYCARLSYSWSSWYWDFWGQGTLVTVSS
